The values below come from the supplement of paper PMC8007513.

± gives the standard deviation of the averaged measurements. The list shows a part of the results. Single values are uncertain, as repeats are few or missing.

The test system of the assay is Saccharomyces cerevisiae BY4743. Put plainly: growth (OD600) relative to untreated control; higher = less growth inhibition. The settings on record: compound concentration: 133 uM; 20 h. Here is the method:
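NMCCC compounds (133 uM, no IPBC) tested alone against Saccharomyces cerevisiae BY4743 in YPD, 96-well plates, starting OD600 ~0.1. Growth was read as OD600 at 20 h and expressed as % of the untreated control. Single pass.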
Regarding `COC(=O)c1cc(COC(=O)C2(c3ccccc3F)CCCC2)oc1C`, the growth is 100%.
As for `CN1CCc2nc(SCc3cccc(C(F)(F)F)c3)c(C#N)cc2C1`, the figure is 106%.
As for `COc1ccc(CNC(=O)c2cc(C(F)(F)F)nn2C)cc1OC`, the figure is 103%; as for `CSc1nc(O)n2ncc(-c3ccc(F)cc3)c2n1`, 102%.
As for `CC\C1=N\N(CC(O)=O)C(=O)C2=CC3=C(C=CS3)[N]12`, the figure is 100%; as for `CCCOC(=O)c1cccc(Nc2nc(C(=O)OCC)nc3ccccc23)c1`, 87.2%; as for `CCCC/1=C/C(=O)N/2\N=C(/SC2=N1)N(C)CC(=O)NCC3=CC(=CC=C3OC)Br`, 107%.
`Cc1cc(C)nc(NS(=O)(=O)c2ccc(-n3cnnn3)cc2)n1` displayed a growth of 98.6%.
Under `COC1=CC=CC=C1NC(=O)CS\C2=N\C(=C/C(=O)N2C3=CC=CC=C3OC)O` stands 95.7%; under `CCOC1=CC=C(NC(=O)CS\C2=C(/C#N)C(CC(=O)N2)C3=CC=CS3)C=C1` (centres undefined), 94.9%.
As for `CCn1nnnc1SCc1cn2cc(Cl)ccc2n1`, the growth worked out at 91.4%.
Under `CCn1c(SCC(=O)NCCc2cccs2)nc2cc(S(N)(=O)=O)ccc21` stands 103%; under `Cc1cc(C)c2[nH]c(C)c(CC(=O)N3CCOCC3)c2c1`, 102%; under `CC(=O)c1c(C)[nH]c(C(=O)N2CCN(Cc3ccc(C#N)cc3)CC2)c1C`, 100%.
Turning to `CCOc1cccc(CC(=O)Nc2nc3ccc(Cl)cc3o2)c1OCC`, the growth amounted to 90.2%.
As for `COc1ccc(C)cc1NC(=O)Nc1nnc(N(CC(C)C)CC(C)C)s1`, the growth was 98.9%.
As for `CCCC(C(=O)Nc1cc(OC)c(OC)c(OC)c1)N1Cc2ccccc2C1=O` (centres undefined), the figure is 97.4%; as for `CN(c1ccccc1)S(=O)(=O)c1ccccc1C(=O)OCC(=O)c1ccc(Cl)s1`, 102%; as for `Cc1c(SCCO)c(O)nc2cc3c(cc12)OCO3`, 92.4 ± 9.8%.
As for `COc1ccc(Br)cc1CNC(=O)CN1C(=O)CSc2nc(C)cc(C)c21`, the figure is 101%; as for `Nn1c(SCC(=O)NC(=O)NCc2ccccc2)nnc1C1CC1`, 99.9%; as for `Cc1ccc(Cl)cc1N1CCN(CCNS(=O)(=O)c2csc(C(N)=O)c2)CC1`, 107%.
For `Cc1ccccc1NS(=O)(=O)c1ccc(C(=O)NN2CCCCC2)cc1`, the growth turned out to be 112%.
Under `COC1=CC=C(NC(=O)CN2\C(=N/C3=C(C(=NO3)C)C2=O)C)C=C1OC` stands 104%; under `COC(=O)c1ccc(CSc2nc(N)c3ccsc3n2)cc1`, 104%; under `Cc1nc(-c2ccccc2)sc1C(=O)OC(C)C(=O)N1CCNC1=O` (centres undefined), 101%.
Under `COc1ccc(NC(C)=O)cc1NC(=O)CN(C)Cc1ccc(C(C)(C)C)cc1` stands 108%; under `CC(C)(C)NS(=O)(=O)c1ccc(C(=O)NCC(=O)N2CCc3ccccc32)cc1`, 102%.
As for `Cc1cc(C(=O)COc2ncnc3c(Cl)cc(Cl)cc23)c(C)n1C`, the figure is 80.6%; as for `CNS(=O)(=O)c1cc(C(=O)N2CCN(S(=O)(=O)c3cc(OC)ccc3OC)CC2)n(C)c1`, 96.4%.
In turn, `CC(=O)c1ccc(S(=O)(=O)NCc2csc(-c3ccccc3)n2)cc1` displayed a growth of 90.7%.
As for `CN(C)S(=O)(=O)c1cccc(CSc2ccc3c(c2)OCCCO3)c1`, the figure is 78.4%.
Compound `CN(C(=O)COCc1cc(-c2ccc(F)cc2)on1)c1ccccc1` registered a growth of 104%.
As for `COC(=O)c1ccn(CC(=O)Nc2ccc(C)cc2C)n1`, the figure is 106%; as for `O=C(CCC\C1=N\[S](=O)(=O)C2=CC=CC=C2N1)OCC3=CC=CC=C3C#N`, 105%; as for `CN(C(=O)CSc1nnc(-c2cccnc2)o1)c1ccc(F)cc1`, 93.8%.
As for `CCCCC(=O)Nc1cc(O)nc2nc(-c3ccc(Cl)cc3)nn12`, the figure is 87.2%.
Under `CCN(CCN(C)C)C(=O)c1cc2c(s1)-c1ccc(Cl)cc1S(=O)(=O)C2` stands 110%.
For the compound `CC(C)CCNC(=O)c1ccc(Cn2c(C(F)(F)F)nc3cccnc32)cc1`, the growth amounted to 103%.
